Results are given in words; binding and its absence hold for the method and conditions named. Binding seen in cells or lysates may run through a third protein. Binding calls can cover weak binding; strength is not graded here.
Experiments:
[1] = target: human TUBB4B p.P259S with a C-terminal ALFA tag (stable IMCD3 line) (human) (UniProt Q9NYC9); assay: co-IP; TUBB4B-ALFA captured on ALFA SelectorPE beads from cleared lysates of stable IMCD3 lines (plates on ice 30 min to depolymerize microtubules; BRB80 pH 6.8, 10% glycerol, 0.2% Triton X-100, 1 mM GTP), 1 hour at RT, eluted with ALFA-elution peptide; immunoblot for α-tubulin and TBCD
[2] = target: human TUBB4B p.P259L with a C-terminal ALFA tag (stable IMCD3 line) (human) (UniProt Q9NYC9); assay: as above

The chains behind the UniProt entries cited, without tags or fusion partners. Where a name states a change or a piece, a line headed by the entry shows the natural chain unless it says otherwise.
UniProt Q9NYC9: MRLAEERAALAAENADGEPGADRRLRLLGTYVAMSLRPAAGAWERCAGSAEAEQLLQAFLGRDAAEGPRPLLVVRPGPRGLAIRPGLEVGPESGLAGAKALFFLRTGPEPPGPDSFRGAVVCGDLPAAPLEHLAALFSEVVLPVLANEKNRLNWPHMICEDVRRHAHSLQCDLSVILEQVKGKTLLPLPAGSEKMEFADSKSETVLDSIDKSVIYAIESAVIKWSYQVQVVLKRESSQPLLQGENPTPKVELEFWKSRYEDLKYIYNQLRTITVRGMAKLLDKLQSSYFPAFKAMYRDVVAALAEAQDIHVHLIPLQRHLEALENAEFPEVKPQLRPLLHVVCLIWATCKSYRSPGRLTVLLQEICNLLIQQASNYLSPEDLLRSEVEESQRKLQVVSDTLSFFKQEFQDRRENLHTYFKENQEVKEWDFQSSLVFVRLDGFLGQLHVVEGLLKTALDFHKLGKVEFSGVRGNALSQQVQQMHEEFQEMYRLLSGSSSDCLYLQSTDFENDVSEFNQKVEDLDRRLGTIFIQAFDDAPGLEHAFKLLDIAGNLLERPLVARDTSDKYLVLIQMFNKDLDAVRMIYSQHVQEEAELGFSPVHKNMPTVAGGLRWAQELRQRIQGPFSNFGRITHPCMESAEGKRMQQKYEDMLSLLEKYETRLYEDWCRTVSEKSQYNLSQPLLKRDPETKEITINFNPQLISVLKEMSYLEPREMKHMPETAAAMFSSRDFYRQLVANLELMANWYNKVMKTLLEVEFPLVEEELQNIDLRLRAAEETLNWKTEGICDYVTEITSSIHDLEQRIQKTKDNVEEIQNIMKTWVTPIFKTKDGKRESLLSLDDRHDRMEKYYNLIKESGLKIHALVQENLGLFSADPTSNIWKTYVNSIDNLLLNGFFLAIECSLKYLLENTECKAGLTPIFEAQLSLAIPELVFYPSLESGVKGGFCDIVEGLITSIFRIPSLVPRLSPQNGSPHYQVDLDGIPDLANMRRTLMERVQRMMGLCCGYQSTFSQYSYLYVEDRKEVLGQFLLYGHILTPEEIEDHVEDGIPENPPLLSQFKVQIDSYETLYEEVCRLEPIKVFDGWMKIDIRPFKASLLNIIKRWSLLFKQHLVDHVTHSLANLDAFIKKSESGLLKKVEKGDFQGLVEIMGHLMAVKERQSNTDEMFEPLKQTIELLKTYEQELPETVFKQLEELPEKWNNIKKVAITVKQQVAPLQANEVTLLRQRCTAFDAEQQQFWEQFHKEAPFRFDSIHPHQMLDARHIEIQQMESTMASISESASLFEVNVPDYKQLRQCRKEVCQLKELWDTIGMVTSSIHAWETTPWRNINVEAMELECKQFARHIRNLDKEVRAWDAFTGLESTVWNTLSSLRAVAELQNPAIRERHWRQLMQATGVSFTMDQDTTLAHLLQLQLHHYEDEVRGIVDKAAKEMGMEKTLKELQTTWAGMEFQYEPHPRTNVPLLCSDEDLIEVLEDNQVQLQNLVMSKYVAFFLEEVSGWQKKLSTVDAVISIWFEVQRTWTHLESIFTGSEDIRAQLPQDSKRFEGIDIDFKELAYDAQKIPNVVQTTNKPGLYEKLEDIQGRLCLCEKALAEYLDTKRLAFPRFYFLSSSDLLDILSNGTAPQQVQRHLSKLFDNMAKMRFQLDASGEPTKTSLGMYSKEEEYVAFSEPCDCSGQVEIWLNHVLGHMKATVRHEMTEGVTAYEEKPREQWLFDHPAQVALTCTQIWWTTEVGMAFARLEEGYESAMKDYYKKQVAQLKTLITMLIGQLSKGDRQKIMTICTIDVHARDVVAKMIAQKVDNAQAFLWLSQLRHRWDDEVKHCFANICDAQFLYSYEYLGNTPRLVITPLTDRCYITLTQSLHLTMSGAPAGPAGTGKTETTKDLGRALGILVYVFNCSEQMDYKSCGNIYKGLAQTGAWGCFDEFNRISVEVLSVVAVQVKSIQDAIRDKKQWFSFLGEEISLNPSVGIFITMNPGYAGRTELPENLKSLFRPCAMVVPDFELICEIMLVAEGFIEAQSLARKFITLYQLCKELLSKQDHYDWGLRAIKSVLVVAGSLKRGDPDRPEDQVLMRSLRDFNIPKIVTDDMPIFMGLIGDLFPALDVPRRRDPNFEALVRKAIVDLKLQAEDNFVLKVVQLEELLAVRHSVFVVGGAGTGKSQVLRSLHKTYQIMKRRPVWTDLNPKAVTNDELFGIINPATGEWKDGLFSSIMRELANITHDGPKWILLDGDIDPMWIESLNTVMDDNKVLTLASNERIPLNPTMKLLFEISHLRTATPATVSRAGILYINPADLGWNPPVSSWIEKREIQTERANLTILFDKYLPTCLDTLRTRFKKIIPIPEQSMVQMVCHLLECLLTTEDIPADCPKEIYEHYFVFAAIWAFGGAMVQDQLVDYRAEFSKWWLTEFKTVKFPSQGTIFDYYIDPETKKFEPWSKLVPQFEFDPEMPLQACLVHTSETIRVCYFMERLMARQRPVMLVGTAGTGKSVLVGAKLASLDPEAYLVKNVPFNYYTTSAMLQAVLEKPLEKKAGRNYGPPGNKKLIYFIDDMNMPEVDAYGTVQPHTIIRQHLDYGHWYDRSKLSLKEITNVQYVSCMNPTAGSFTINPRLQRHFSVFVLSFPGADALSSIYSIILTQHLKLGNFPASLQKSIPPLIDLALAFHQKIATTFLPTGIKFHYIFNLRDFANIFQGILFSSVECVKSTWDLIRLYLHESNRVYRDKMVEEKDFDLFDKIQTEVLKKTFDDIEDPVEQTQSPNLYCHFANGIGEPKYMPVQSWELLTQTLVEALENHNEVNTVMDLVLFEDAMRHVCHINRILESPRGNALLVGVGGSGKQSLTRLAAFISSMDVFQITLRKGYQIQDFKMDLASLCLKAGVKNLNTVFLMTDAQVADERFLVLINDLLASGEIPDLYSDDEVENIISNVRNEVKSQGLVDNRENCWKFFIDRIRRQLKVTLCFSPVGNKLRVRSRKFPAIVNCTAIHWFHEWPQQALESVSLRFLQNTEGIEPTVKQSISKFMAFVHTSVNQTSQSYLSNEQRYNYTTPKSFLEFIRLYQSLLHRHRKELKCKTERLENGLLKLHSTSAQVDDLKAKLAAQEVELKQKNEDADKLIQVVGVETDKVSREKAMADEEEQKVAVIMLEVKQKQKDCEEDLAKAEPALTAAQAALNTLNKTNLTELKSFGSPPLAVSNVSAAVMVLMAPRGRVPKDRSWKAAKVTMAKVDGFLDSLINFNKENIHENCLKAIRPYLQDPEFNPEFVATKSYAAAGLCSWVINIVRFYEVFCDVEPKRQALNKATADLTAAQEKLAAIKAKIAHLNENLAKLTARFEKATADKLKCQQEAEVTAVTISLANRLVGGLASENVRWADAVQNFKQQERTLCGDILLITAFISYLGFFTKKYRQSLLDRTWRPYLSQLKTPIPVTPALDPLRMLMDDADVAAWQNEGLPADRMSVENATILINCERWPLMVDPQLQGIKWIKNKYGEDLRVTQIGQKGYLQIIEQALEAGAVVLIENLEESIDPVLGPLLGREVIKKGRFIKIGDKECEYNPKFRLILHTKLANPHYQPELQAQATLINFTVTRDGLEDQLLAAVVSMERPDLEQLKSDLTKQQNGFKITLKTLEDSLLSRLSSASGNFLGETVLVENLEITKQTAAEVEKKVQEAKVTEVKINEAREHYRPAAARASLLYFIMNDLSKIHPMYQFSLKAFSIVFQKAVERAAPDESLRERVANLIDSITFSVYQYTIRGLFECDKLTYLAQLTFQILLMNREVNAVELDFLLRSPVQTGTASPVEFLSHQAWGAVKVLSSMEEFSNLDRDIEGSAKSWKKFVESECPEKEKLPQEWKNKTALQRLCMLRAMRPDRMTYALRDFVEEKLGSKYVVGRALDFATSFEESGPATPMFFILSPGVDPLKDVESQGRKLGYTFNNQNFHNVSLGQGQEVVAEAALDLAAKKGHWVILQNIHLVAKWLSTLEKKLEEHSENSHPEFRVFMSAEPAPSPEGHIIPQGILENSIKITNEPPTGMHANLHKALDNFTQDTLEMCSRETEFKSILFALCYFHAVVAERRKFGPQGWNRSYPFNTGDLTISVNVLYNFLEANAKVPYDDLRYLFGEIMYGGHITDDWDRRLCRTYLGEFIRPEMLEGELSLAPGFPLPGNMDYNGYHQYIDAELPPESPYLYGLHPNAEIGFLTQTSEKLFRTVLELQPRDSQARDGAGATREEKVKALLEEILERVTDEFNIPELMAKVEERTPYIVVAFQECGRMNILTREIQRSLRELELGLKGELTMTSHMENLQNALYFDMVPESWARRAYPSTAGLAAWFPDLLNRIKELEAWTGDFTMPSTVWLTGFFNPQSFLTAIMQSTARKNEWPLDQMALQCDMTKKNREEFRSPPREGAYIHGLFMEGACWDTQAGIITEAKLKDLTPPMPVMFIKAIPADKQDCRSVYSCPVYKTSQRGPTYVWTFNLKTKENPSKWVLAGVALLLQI
UniProt Q8BYA0: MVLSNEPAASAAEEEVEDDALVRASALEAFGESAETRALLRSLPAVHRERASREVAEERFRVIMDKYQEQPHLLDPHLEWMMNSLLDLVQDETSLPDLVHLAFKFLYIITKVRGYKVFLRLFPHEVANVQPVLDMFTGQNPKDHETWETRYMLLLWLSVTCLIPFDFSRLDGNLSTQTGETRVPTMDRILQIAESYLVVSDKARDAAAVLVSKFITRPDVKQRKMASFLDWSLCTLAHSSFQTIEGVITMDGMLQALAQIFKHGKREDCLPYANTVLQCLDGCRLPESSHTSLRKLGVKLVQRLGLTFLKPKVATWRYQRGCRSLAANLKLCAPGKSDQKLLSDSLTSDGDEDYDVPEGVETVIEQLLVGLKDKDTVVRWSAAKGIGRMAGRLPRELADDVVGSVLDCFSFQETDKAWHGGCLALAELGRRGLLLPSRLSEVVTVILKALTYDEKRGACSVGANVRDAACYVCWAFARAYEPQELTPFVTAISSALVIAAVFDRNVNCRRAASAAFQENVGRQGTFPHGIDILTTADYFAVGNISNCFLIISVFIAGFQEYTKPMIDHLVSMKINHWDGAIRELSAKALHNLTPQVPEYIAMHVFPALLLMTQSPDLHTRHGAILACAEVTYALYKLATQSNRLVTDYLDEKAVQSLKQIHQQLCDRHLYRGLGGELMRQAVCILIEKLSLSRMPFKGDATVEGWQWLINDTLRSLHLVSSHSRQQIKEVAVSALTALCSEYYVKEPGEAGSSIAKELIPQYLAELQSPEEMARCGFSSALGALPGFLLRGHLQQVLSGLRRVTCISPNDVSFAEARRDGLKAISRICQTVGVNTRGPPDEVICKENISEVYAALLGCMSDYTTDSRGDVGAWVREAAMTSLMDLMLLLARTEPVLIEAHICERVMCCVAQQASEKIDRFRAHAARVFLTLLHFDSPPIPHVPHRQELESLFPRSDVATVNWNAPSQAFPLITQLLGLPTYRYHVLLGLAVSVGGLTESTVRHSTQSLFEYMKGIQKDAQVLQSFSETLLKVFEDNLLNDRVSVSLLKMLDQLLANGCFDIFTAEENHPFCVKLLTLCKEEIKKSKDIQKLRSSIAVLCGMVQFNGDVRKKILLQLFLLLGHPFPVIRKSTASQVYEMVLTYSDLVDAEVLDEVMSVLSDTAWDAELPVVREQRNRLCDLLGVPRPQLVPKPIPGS

In the case of “TBCD (tubulin folding co-factor D), endogenous in IMCD3 cells (from UniProt Q8BYA0 1-1196)”, the binding [1] is reported as “binds” and the binding [2] is reported as “binds”.

Source: PMC7616230
